Reference: US20210388108A1 (GLYCARDIAL DIAGNOSTICS S L, published 2021)
Results are given in words; binding and its absence hold for the method and conditions named. Some entries that bind do so weakly or less than the wild type.

Assays:
Test in all cases: QC ELISA of the IgG on its target peptide
[1] = target: T1, Ag3G (Bio-PGVCN(GlcNAc)ETMMA)
T1 sequence (peptide, GlcNAc on Asn at position 5; N-terminal biotin (Bio-) as printed in Table 3): PGVCNETMMA

[2] = target: T2, Ag5G (Bio-SRLAN(GlcNAc)LTQGE)
T2 sequence (peptide, GlcNAc on Asn at position 5; N-terminal biotin (Bio-) as printed in Table 3): SRLANLTQGE

[3] = target: T3, Ag6G (Bio-CSTNN(GlcNAc)PSQAK)
T3 sequence (peptide, GlcNAc on Asn at position 5; N-terminal biotin (Bio-) as printed in Table 3): CSTNNPSQAK

[4] = target: T4, Ag7G (Bio-WKMLN(GlcNAc)TSSLE)
T4 sequence (peptide, GlcNAc on Asn at position 5; N-terminal biotin (Bio-) as printed in Table 3): WKMLNTSSLE

B1: Ag3G-4 (antibody, V domains shown)
VH: QEQLEESGGRLVTPGTPLTLTCAVSGFSLSSYGVSWVRQAPGKGLEYIGYIDVSGSAYYASWARGRFTISRTSTTVDLKMTSLTTEDTATYFCARGSPGYDANDLWGQGTLVTISS
VL: DVVMTQTPASVEAAVGGTVTIKCQASQSISTYLSWHQQKPGQPPKLLIYRASTLESGVPSRFKGSGSGTEFALTISDLECADAATYYCQTAHDSSGRGTWGVIFGGGTEVVVKR
B1 was tested, and the binding [1] was “binds”.

B2: Ag5G-17 (antibody, V domains shown)
VH: QEQLVESGGRLVTPGTPLILTCTASGFSLSRHTMSWVRQAPGKGLEWIGYITYGGSAYSANWAKGRFTISRTSTTVDLKMNSLTTEDTATYFCGRVGAYGAYYDLWGQGTLVTVSS
VL: DVVMTQTPSSKSVPVGDTVTINCQASESVYVNNFLSWYRQKPGQPPKRLIYSASTLASGVPSRFSGSGSGTQFTLTISDVVCDDAATYYCAGYHEFNTDGNAFGGGTEVVVKR
For B2, the binding [2] was “binds”.

B3: Ag6G-1 (antibody, V domains shown)
VH: QSVEESGGRLVTPGTPLTFSCTASGFSLNSYYMSWVRQAPGKGLEWIGLVSTDGSAYYASWAKGRFTISRTSTTVDLKLTSLTTEDAATYFCARDRGSDSYIDQLDLWGQGTLVTISS
VL: DPMLTQTPSSVSAAVGGTVTANCQSSQSVRGNNDLAWYQQKPGQPPKLLIYDASKLASGVPSRFKGSGSGTDFTLTISDLECADAATYYCQQGHRVEDVANAFGGGTEVVVKR
B3 was tested, and the binding [3] was “binds”.

B4: Ag7G-17 (antibody, V domains shown)
VH: AQSLEESGGRLVTPGTPLTLTCTASGFSLNTYYWVSWVRQAPGKGLEWIGHINPDGTAYYATWAKGRFTISRTSTTVDLKITSPTTEDTATYFCARLGSTGDNFNIWGPGTLVTISS
VL: YVMMTQTPASVSEPVGGTVTIKCQASQSIDSYLAWYQQKPGQPPKLLIYKASTLASGVPSRFSGSGSGTQFTLTISDVECDDAATYYCQCSHYGSNWLGPFGGGTEVVVKR
B4 was tested, and the binding [4] was “binds”.

B5: Ag7G-19 (antibody, V domains shown)
VH: QSVEESGGRLVTPGTPLTLTCTVSGIDLSSNAMSWVRQAPGGGLEWIGTINTNGKTYDASWMNGRFTISKTSSTTVDLKMTSLTTEDTATYFCARGRWTGNTGWYIDLWGPGTLVTVSS
VL: YVMMTQTPSSTSAAVGGTVTINCQSSQSVYSNSFLSWYQQKPGQLPKLLIYKASTLASGVPSRFKGSGSGTQFTLTISELQCDDAATYYCQGGYVDWMRAFGGGTEVVVKR
B5 was tested, and the binding [4] was “binds”.
